Results taken from PubChem BioAssay AID1347075 (National Center for Advancing Translational Sciences (NCATS), 2019).
Several values for one entry are separate records, joined by “and”; a condition that tells them apart may be missing. Identical values can stand only once. Among all 400,000 compounds or so, about 5,500 (1.4%) were called active. The shares of active, inactive and inconclusive entries below differ from those in the screen. Calls follow the shape of the dose curve; as a rule, active = well fitted cell-killing curve with a large enough effect; inconclusive = small, poorly fitted or top-dose-only effect, or effect the other way; inactive = flat fitted curve, though single readings scatter. A potency beside an inconclusive call is a rough fit, not a confirmed value.

assay: qHTS assay for MDR1-selective chemotherapeutics: Primary screen using the parental adenocarcinoma cell KB-3-1; conditions: KB-3-1 viability, CellTiter-Glo ATP luminescence, 72 h; activity change, negative = cytotoxic: at 46.1 µM (top of the series); also: nearly all actives have a fitted effect of over 60% in size
Summary of the method: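 Multi-concentration cytotoxicity screen in KB-3-1 cells grown in DMEM lacking phenol red with 10% FBS. After 72 h at 37 °C with compound, ATP-dependent luminescence was recorded.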
% is scaled to controls: 0 for no effect and ±100 for the full control effect; potency is read from the fitted curve at half-maximal effect.

Compound	Potency	activity change, negative = cytotoxic
Cc1noc(C)c1C(=O)Nc1ccc(C#N)cc1	inconclusive: 18.4 µM [cytotoxic, single point]	–
CN(C)S(=O)(=O)c1ccc(S(=O)(=O)NC2CCOC(C)(C)C2)cc1 (stereo not drawn)	–	inactive: -5.69%
O=C(Cc1n[nH]c(=O)c2ccccc12)OCC(=O)c1ccccc1	–	inconclusive: -0.476%
Cc1nc(C)c(-c2csc(Nc3ccc(F)cc3)n2)s1	inconclusive: 25.9 µM [cytotoxic, single point]	–
Cc1cccc(N2C(=O)CSC23C(=O)N(Cc2cccc(F)c2)c2ccccc23)c1 (stereo not drawn)	inconclusive: 23.1 µM [cytotoxic, single point]	–
CN(C(=O)CC(NC(=O)c1ccccc1)(c1ccccc1)c1ccccc1)c1ccccc1	inconclusive: 18.4 µM [cytotoxic, single point]	–
COc1ccc(NC(=O)CC2C(=O)N(c3ccc(Cl)cc3)C(=S)N2CCc2ccccn2)cc1 (stereo not drawn)	inconclusive: 23.1 µM [cytotoxic, single point]	–
O=[N+]([O-])c1cc(S(=O)(=O)Nc2cccc(C(F)(F)F)c2)ccc1-n1nnc2ccccc21	inconclusive: 25.9 µM [cytotoxic, partial curve, poor fit]	–
O=C(Nc1ccc2oc(-c3ccccc3F)nc2c1)c1ccccc1Cl	inconclusive: 29.1 µM [cytotoxic, single point]	–
O=C(COC(=O)c1cc(-c2cccc3ccccc23)nc2ccccc12)NC1CCS(=O)(=O)C1 (stereo not drawn)	–	inactive: 26.7%
CCN1C(=O)C(=O)N(Cc2ccc(OC)c(F)c2)C1=O	inconclusive: 29.1 µM [rising, single point]	–
COc1ccccc1N1CCN(C(=O)c2sc3ncnc(N4CCN(c5ccccn5)CC4)c3c2C)CC1	inconclusive: 32.6 µM [cytotoxic, single point]	–
COc1ccc(/C=C2\SC(=S)N(CCCC(=O)NC3CCCC3)C2=O)cc1OC	inconclusive: 18.4 µM [cytotoxic, single point]	–
CN(C)c1ccc(/C=C/c2ccc3ccccc3[n+]2C)cc1	inconclusive: 580 nM [cytotoxic, full curve, poor fit] and active: 326 nM	–
O=C(NCc1ccco1)c1ccc(=O)oc1	–	inactive: -8.38%
Cc1cccc(C(=O)N=c2c(C#N)cc3c(=O)n4cccc(C)c4nc3n2Cc2ccco2)c1	inconclusive: 29.1 µM [rising, single point]	–
CC1NC(=O)c2cc3ccccc3cc2-n2c1nc1ccccc1c2=O (stereo not drawn)	–	inactive: 5.51%
CC(/C=C/c1ccccc1)=N/NC(=O)c1cccc(Br)c1	inconclusive: 29.1 µM [cytotoxic, single point]	–
COC(=O)Nc1ccc(S(=O)(=O)N2CCCCC2)cc1	inconclusive: 23.1 µM [cytotoxic, partial curve, poor fit]	–
COc1ccccc1-c1cnc(C(O)c2c(C)cc(C)cc2C)[nH]1 (stereo not drawn)	–	inactive: -0.0789%
CCCCCCN1CCN(C2CN(Cc3cn(Cc4cccc(C(F)(F)F)c4)nn3)S(=O)(=O)C2)CC1 (stereo not drawn)	–	inactive: -24.1%
C1=C2C[N+]3(CCCC3)CC2Cc2ccc3ccccc3c21 (stereo not drawn)	inconclusive: 23.1 µM [cytotoxic, single point]	–
COc1ccc(S(=O)(=O)N2CCOCC2)cc1NC(=O)CSc1nnc(N)s1	–	inactive: 5.98%
Cc1ccc(C(=O)Nc2ccc(S(=O)(=O)N3CCOCC3)cc2)cc1C	inconclusive: 9.2 µM [rising, partial curve, poor fit]	–
CCOc1ccc(NS(=O)(=O)c2ccc(NC(=S)NC(C)=O)cc2)cc1	–	inactive: 4.98%

Compound	Potency	activity change, negative = cytotoxic
Cc1ccc(OCCn2c(Br)nc3c2c(=O)n(C)c(=O)n3C)cc1	active: 20.6 µM	–
CC[C@@H]1CC2=C(C(=O)OC(C)(C)O2)[C@H](c2ccc(Cl)cc2)O1	–	inactive: 0.0302%
CC(=O)Nc1cn(-c2ccccc2)nc1-c1ccccc1	–	inactive: 0.424%
COc1cccc(OC)c1OCCCCN1CCC(Cc2ccccc2)CC1	inconclusive: 20.6 µM [cytotoxic, single point]	–
COc1cccc(-n2nc(C#N)c(Cl)cc2=O)c1	inconclusive: 2.59 µM [cytotoxic, full curve]	–
CN(C)CCN(Cc1ccccc1)S(=O)(=O)c1ccc(-c2ccc(=O)[nH]n2)s1	–	inactive: -7.49%
CC1(C)CC(=O)/C(=C\c2cccc([N+](=O)[O-])c2)C(C)(C)N1	inconclusive: 20.6 µM [cytotoxic, single point]	–
Cc1ccc2nc(NC(=O)c3ccc(-c4nc5ccccc5s4)s3)sc2c1	inconclusive: 2.91 µM [cytotoxic, full curve, poor fit]	–
Cn1ccc2c(N3c4ccccc4CCc4ccccc43)cc3c(c21)C1CCC3C1 (stereo not drawn)	inconclusive: 29.1 µM [cytotoxic, single point]	–
Cc1cccc[n+]1CC(=O)c1ccc(Cl)cc1	–	inactive: -1.78%
COc1ccccc1NC(=O)c1ccc(NC(=O)CNC(=O)c2ccc(OC)c(OC)c2)cc1	inconclusive: 16.4 µM [rising, partial curve]	–
CC1=NN(c2nc(N)nc(/C(C#N)=C/c3ccc([N+](=O)[O-])o3)n2)C(C)(C)C1	inconclusive: 29.1 µM [cytotoxic, single point]	–
Cc1cccc(N2CCN(C(=O)C3CCCCC3)CC2)c1C	–	inactive: -8.76%
O=C(NC1CC1)C1CCN(c2nc3ccccc3s2)CC1	–	inactive: -18.5%
CCCNC(=O)c1ccc2c(=O)c(O)c(-c3cccc(Br)c3)[nH]c2c1	active: 11.6 µM	–
CCCCNC(=O)c1c(N)[nH]c(C(=O)c2ccccc2)c1-c1ccccn1	inconclusive: 20.6 µM [cytotoxic, single point]	–
Cc1cccc(N2CCN(C(=O)CCCn3c(=O)[nH]c4ccsc4c3=O)CC2C)c1 (stereo not drawn)	–	inactive: -11.3%
O=[N+]([O-])c1ccc(/C=C2\C=C(C(O)c3ccc([N+](=O)[O-])cc3)c3ccccc32)cc1 (stereo not drawn)	inconclusive: 1.84 µM [cytotoxic, full curve, poor fit]	–
CCCCOC(=O)c1ccc(NC(=O)c2cc(-c3ccccc3)on2)cc1	–	inactive: 4.52%
O=C(NCC(=O)N(CC1CCCO1)C(C(=O)NC1CCCC1)c1cccnc1)c1ccco1 (stereo not drawn)	–	inactive: -2.35%
COc1ccc(-c2cc3c(=O)n(CC(=O)NCCCN4CCC(Cc5ccccc5)CC4)ncn3n2)cc1	active: 20.6 µM	–
COCCOc1cc(Nc2nnc(C(F)(F)F)s2)c(Cl)cc1Cl	inconclusive: 29.1 µM [cytotoxic, single point]	–
COc1ccc(OC)c(NC(=O)/C=C/c2ccc(S(=O)(=O)N3CCOCC3)cc2)c1	–	inactive: 8.26%
Cc1[nH]c2ccccc2c(=O)c1CNCc1ccccc1	–	inactive: -3.97%
COc1ccccc1-n1cc(-c2ccc(C)cc2)[nH]c1=S	inconclusive: 29.1 µM [cytotoxic, single point]	–

Compound	Potency	activity change, negative = cytotoxic
CCN(CC)CCNC(=O)c1ccc(NC(=O)c2cccc(S(=O)(=O)N3c4ccccc4CC3C)c2)cc1 (stereo not drawn)	inconclusive: 29.1 µM [cytotoxic, single point]	–
CC1CCCC(NC(=O)C2CCN(S(=O)(=O)N3CCCCCC3)CC2)C1C (stereo not drawn)	–	inactive: -2%
Cc1ccc(NC(=O)c2sc(-n3nc(C)c(CCC(C)C)c3C)nc2C)cc1C	–	inactive: 10.5%
Cc1cnc(C(=O)Nc2ccccc2-c2ccc(C)o2)cn1	–	inactive: -5.94%
COc1cccc(NC(=O)[C@@H]2CCC(=O)N2C2OC(=O)c3ccccc32)c1 (stereo partly drawn)	–	inactive: 0%
Cc1noc(C)c1C(=O)OCC(=O)c1c(N)n(CC(C)C)c(=O)n(C)c1=O	–	inactive: -1.45%
C#CCOCCOCCOCCNc1nc(N2CCN(C(=O)[C@H]([C@@H](C)CC)n3cc(CCCCN)nn3)CC2)nc(N2CCN(C(=O)[C@H]([C@@H](C)CC)n3cc(CCCN=C(N)N)nn3)CC2)n1	–	inactive: 0%
C/C(=N\NC(=O)C1(C)CC1(Br)Br)c1ccc(NC(=O)C2CCC2)cc1 (stereo not drawn)	active: 20.6 µM	–
Cc1ccccc1-c1nc(CS(=O)(=O)CC(=O)N2CCOCC2)c(C)o1	–	inactive: -5.09%
CC(C)CC(NC(=O)c1cccs1)c1nnc(SCc2ccc(Cl)c(Cl)c2)n1C (stereo not drawn)	inconclusive: 23.1 µM [cytotoxic, single point]	–
Cc1csc2c1c(=O)n(O)c(=O)n2Cc1ccccc1	–	inactive: 7.71%
CCOC(=O)c1cc(-c2ccncc2)nc2c1c(C)nn2C	inconclusive: 29.1 µM [cytotoxic, single point]	–
Nc1c(S(=O)(=O)c2cccs2)c2nc3ccccc3nc2n1Cc1cccs1	–	inactive: -11%
CC1CCN(S(=O)(=O)c2ccc(N3CCCCS3(=O)=O)cc2)CC1	–	inactive: -8.01%
N#CC(c1ccc(F)cc1)c1ccc(C(=O)c2ccccc2)cc1 (stereo not drawn)	inconclusive: 23.1 µM [cytotoxic, single point]	–
Cc1noc(C)c1C(=O)OCC(=O)Nc1cccc(F)c1	inconclusive: 18.4 µM [rising, single point]	–
CC1CCN(CCc2nc3cc(NC(=O)COc4ccc(Cl)cc4)ccc3n2C)CC1	inconclusive: 10.3 µM [cytotoxic, partial curve, poor fit]	–
O=C1NCCN1CCN1C(=O)c2ccccc2NC1c1ccccc1 (stereo not drawn)	–	inactive: 15.4%
CC(=O)Nc1ccc(C(=O)N/N=C/c2ccccc2OC(=O)c2ccc(Cl)cc2)cc1	inconclusive: 23.1 µM [cytotoxic, single point]	–
CCN1CCc2c(sc(NC(=O)c3ccc(C(=O)c4ccccc4)cc3)c2C(N)=O)C1	–	inactive: 0%
CCC1(c2ccccc2)NC(=S)N(c2cccc(C)c2C)N1 (stereo not drawn)	–	inactive: 13.2%
CC(=O)Nc1ccc2c(c1)C(=O)N(C1CCCCC1)C2=O	–	inactive: -5.35%
COc1ccc2c(c1)c(CC(=O)Nc1nnc(C3CC3)s1)c(C)n2C(=O)c1ccc(Cl)cc1	inconclusive: 18.4 µM [cytotoxic, single point]	–
